Record: PubChem BioAssay AID1259254 (NCATS, 2017)
Aim: 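Finding genes that stop cells copying their DNA twice in one cycle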 (primary screen). Cells: human HCT116 colorectal cancer cells. Reagents: single siRNA against human genes. Timing: 3 days. Detection: 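Nuclei stained with Hoechst and imaged; cell-cycle phase assigned by DNA content; G2 share scaled per plate, non-targeting siRNA 0%, GMNN siRNA 100%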. Direction: G2 robust z-score: higher = more G2 cells, more excess DNA replication. Active means: 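An siRNA counts as active if its G2 robust z-score lies at least 5 MADs above the screen median; here such calls match roughly 38% of GMNN control or more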.
Here is a random part of about 59,000 reagents. In the full data, about 1,550 (2.6%) are marked active. 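G2 share is only a proxy for re-replication; each gene was hit by three separate siRNAs, and active genes were retested.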 A number with no mark means an inactive call. Further read-outs or replicates are left out here. Not stated in the record: the amount of reagent.

{"target gene": "FAM90A20", "PubChem SID": "SID160726687", "G2 robust z-score": -0.269}
{"target gene": "FAM90A20", "PubChem SID": "SID160726689", "G2 robust z-score": -1.14}
{"target gene": "FAM90A20", "PubChem SID": "SID160771795", "G2 robust z-score": 1.59}
{"target gene": "CCT7", "PubChem SID": "SID160728767", "G2 robust z-score": -0.43}
{"target gene": "CCT7", "PubChem SID": "SID160728768", "G2 robust z-score": 1.49}
{"target gene": "CCT7", "PubChem SID": "SID160730453", "G2 robust z-score": 0.608}
{"target gene": "HTR3B", "PubChem SID": "SID160721651", "G2 robust z-score": 0.207}
{"target gene": "HTR3B", "PubChem SID": "SID160721652", "G2 robust z-score": 3.09}
{"target gene": "HTR3B", "PubChem SID": "SID160721653", "G2 robust z-score": -1.24}
{"target gene": "ZBTB49", "PubChem SID": "SID160760225", "G2 robust z-score": -0.325}
{"target gene": "ZBTB49", "PubChem SID": "SID160760226", "G2 robust z-score": -0.0206}
{"target gene": "ZBTB49", "PubChem SID": "SID160760227", "G2 robust z-score": -0.161}
{"target gene": "AP3B1", "PubChem SID": "SID160720303", "G2 robust z-score": 1.78}
{"target gene": "AP3B1", "PubChem SID": "SID160720304", "G2 robust z-score": -0.979}
{"target gene": "AP3B1", "PubChem SID": "SID160720305", "G2 robust z-score": 0.265}
{"target gene": "RFPL4A", "PubChem SID": "SID160770370", "G2 robust z-score": -0.463}
{"target gene": "RFPL4A", "PubChem SID": "SID160770371", "G2 robust z-score": 0.509}
{"target gene": "RFPL4A", "PubChem SID": "SID160770372", "G2 robust z-score": 1.74}
{"target gene": "ERC2", "PubChem SID": "SID160737561", "G2 robust z-score": 0.982}
{"target gene": "ERC2", "PubChem SID": "SID160737562", "G2 robust z-score": 2.4}
{"target gene": "ERC2", "PubChem SID": "SID160737563", "G2 robust z-score": 1.8}
{"target gene": "GBA1", "PubChem SID": "SID160769616", "G2 robust z-score": 3.22}
{"target gene": "GBA1", "PubChem SID": "SID160769626", "G2 robust z-score": "5.62 (active)"}
{"target gene": "GBA1", "PubChem SID": "SID160769635", "G2 robust z-score": "9.7 (active)"}
{"target gene": "COPB2", "PubChem SID": "SID160721862", "G2 robust z-score": 4.3}
{"target gene": "COPB2", "PubChem SID": "SID160721863", "G2 robust z-score": 0.133}
{"target gene": "COPB2", "PubChem SID": "SID160721864", "G2 robust z-score": 4.44}
{"target gene": "HSD17B7", "PubChem SID": "SID160727917", "G2 robust z-score": -1.09}
{"target gene": "HSD17B7", "PubChem SID": "SID160727918", "G2 robust z-score": 2.55}
{"target gene": "HSD17B7", "PubChem SID": "SID160775586", "G2 robust z-score": 0.24}
